# Assay results reported in the supplement of paper PMC8728848.
# Some of the results follow.
# B1: Mincle (Bos taurus) (protein)
# chain: MNSSTSPASQTERRCFSFQLFSWAIAGTSILLLSACFITRCVVTYSIFQLCDEKKFQPPGDSMELSCYNDGSGSVKNCCPLKWFHFQSSCYLFSPDTMSWRASLKNCSSMGAHLVVINTQEEQEFLYYTKPRKKEFYIGLTDQVTEGQWQWVDGTPFTKSLSFWDAGEPNNLVIVEDCATIRDSSNPRQNWNDVPCFFNMFRVCEMPERKI
# Key:
# Experiment in all cases: glycan array binding signal (z-score within array); higher = stronger binding
# Conditions in all cases: glycan notation: IUPAC condensed, linker removed
# [1] = target: Fuc(a1-2)Gal(b1-4)GlcNAc(b1-3)Gal(b1-4)GlcNAc(b1-3)Gal(b1-4)GlcNAc
# Method in brief: (§1)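 Arrays were curated from the Consortium for Functional Glycomics database, 3228 in total, and kept only where the protein sequence was available. Binding is expressed as a within-array Z-score. This score was averaged across arrays of the same protein sequence at different concentrations or buffers and across linkers, and negative values can be read as non-binding.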
# [2] = target: Fuc(a1-2)Gal(b1-4)GlcNAc(b1-3)GalNAc
# Method in brief: as §1
# [3] = target: Fuc(a1-2)Gal(b1-4)GlcNAc(b1-3)[Fuc(a1-2)Gal(b1-4)GlcNAc(b1-6)]GalNAc
# Method in brief: as §1
# [4] = target: Fuc(a1-2)Gal(b1-4)GlcNAc(b1-3)[Fuc(a1-3)[Gal(b1-4)]GlcNAc(b1-6)]Gal(b1-4)Glc
# Method in brief: as §1
# [5] = target: Fuc(a1-2)Gal(b1-4)GlcNAc(b1-6)GalNAc
# Method in brief: as §1
# [6] = target: Fuc(a1-2)Gal(b1-4)GlcNAc6S
# Method in brief: as §1
# [7] = target: Fuc(a1-2)Gal(b1-4)[Fuc(a1-3)]GlcNAc
# Method in brief: as §1
# [8] = target: Fuc(a1-2)Gal(b1-4)[Fuc(a1-3)]GlcNAc(b1-2)Man(a1-3)[Fuc(a1-2)Gal(b1-4)[Fuc(a1-3)]GlcNAc(b1-2)Man(a1-6)]Man(b1-4)GlcNAc(b1-4)[Fuc(a1-6)]GlcNAc
# Method in brief: as §1
# [9] = target: Fuc(a1-2)Gal(b1-4)[Fuc(a1-3)]GlcNAc(b1-2)[Fuc(a1-2)Gal(b1-4)[Fuc(a1-3)]GlcNAc(b1-4)]Man(a1-3)[Fuc(a1-2)Gal(b1-4)[Fuc(a1-3)]GlcNAc(b1-2)Man(a1-6)]Man(b1-4)GlcNAc(b1-4)GlcNAc
# Method in brief: as §1
# [10] = target: Fuc(a1-2)Gal(b1-4)[Fuc(a1-3)]GlcNAc(b1-3)Gal(b1-4)[Fuc(a1-3)]GlcNAc
# Method in brief: as §1
# [11] = target: Fuc(a1-2)Gal(b1-4)[Fuc(a1-3)]GlcNAc(b1-3)Gal(b1-4)[Fuc(a1-3)]GlcNAc(b1-3)Gal(b1-4)[Fuc(a1-3)]GlcNAc
# Method in brief: as §1
# [12] = target: Fuc(a1-2)Gal(b1-4)[Fuc(a1-3)]GlcNAc(b1-3)GalNAc
# Method in brief: as §1
# [13] = target: Fuc(a1-2)Gal(b1-4)[Fuc(a1-3)]GlcNAc(b1-3)[Neu5Ac(a2-6)Gal(b1-4)GlcNAc(b1-6)]Gal(b1-4)Glc
# Method in brief: as §1
# [14] = target: Fuc(a1-2)Gal3S(b1-4)GlcNAc
# Method in brief: as §1
# [15] = target: Fuc(a1-2)Gal6S(b1-3)GlcNAc
# Method in brief: as §1
# [16] = target: Fuc(a1-2)Gal6S(b1-3)GlcNAc6S
# Method in brief: as §1
# Fuc(a1-2)Gal6S(b1-4)Glc = target: Fuc(a1-2)Gal6S(b1-4)Glc
# Method in brief: as §1
# [17] = target: Fuc(a1-2)Gal6S(b1-4)Glc6S
# Method in brief: as §1
# Fuc(a1-2)[Gal(a1-3)]Gal = target: Fuc(a1-2)[Gal(a1-3)]Gal
# Method in brief: as §1
# [18] = target: Fuc(a1-2)[Gal(a1-3)]Gal(b1-3)GalNAc
# Method in brief: as §1
# [19] = target: Fuc(a1-2)[Gal(a1-3)]Gal(b1-3)GalNAc(b1-3)Gal(a1-4)Gal(b1-4)Glc
# Method in brief: as §1
# [20] = target: Fuc(a1-2)[Gal(a1-3)]Gal(b1-3)GlcNAc
# Method in brief: as §1
# [21] = target: Fuc(a1-2)[Gal(a1-3)]Gal(b1-3)GlcNAc(b1-2)Man(a1-3)[Fuc(a1-2)[Gal(a1-3)]Gal(b1-3)GlcNAc(b1-2)Man(a1-6)]Man(b1-4)GlcNAc(b1-4)GlcNAc
# Method in brief: as §1
# [22] = target: Fuc(a1-2)[Gal(a1-3)]Gal(b1-3)GlcNAc(b1-2)Man(a1-3)[Fuc(a1-2)[Gal(a1-3)]Gal(b1-3)GlcNAc(b1-2)Man(a1-6)]Man(b1-4)GlcNAc(b1-4)[Fuc(a1-6)]GlcNAc
# Method in brief: as §1
# [23] = target: Fuc(a1-2)[Gal(a1-3)]Gal(b1-3)GlcNAc(b1-3)GalNAc
# Method in brief: as §1
# [24] = target: Fuc(a1-2)[Gal(a1-3)]Gal(b1-3)GlcNAc(b1-6)GalNAc
# Method in brief: as §1
# [25] = target: Fuc(a1-2)[Gal(a1-3)]Gal(b1-4)Glc
# Method in brief: as §1
# [26] = target: Fuc(a1-2)[Gal(a1-3)]Gal(b1-4)GlcNAc
# Method in brief: as §1
# [27] = target: Fuc(a1-2)[Gal(a1-3)]Gal(b1-4)GlcNAc(b1-2)Man
# Method in brief: as §1
# [28] = target: Fuc(a1-2)[Gal(a1-3)]Gal(b1-4)GlcNAc(b1-2)Man(a1-3)[Fuc(a1-2)[Gal(a1-3)]Gal(b1-4)GlcNAc(b1-2)Man(a1-6)]Man(b1-4)GlcNAc(b1-4)GlcNAc
# Method in brief: as §1
binder,measurement,setting,value
B1,glycan array binding signal (z-score),[1],0.153
same,glycan array binding signal (z-score),[2],-0.268
same,glycan array binding signal (z-score),[3],-0.228
same,glycan array binding signal (z-score),[4],1.09
same,glycan array binding signal (z-score),[5],-0.168
same,glycan array binding signal (z-score),[6],-0.32
same,glycan array binding signal (z-score),[7],0.139
same,glycan array binding signal (z-score),[8],0.219
same,glycan array binding signal (z-score),[9],1.16
same,glycan array binding signal (z-score),[10],0.341
same,glycan array binding signal (z-score),[11],0.087
same,glycan array binding signal (z-score),[12],0.822
same,glycan array binding signal (z-score),[13],-0.411
same,glycan array binding signal (z-score),[14],-0.533
same,glycan array binding signal (z-score),[15],-0.618
same,glycan array binding signal (z-score),[16],0.225
same,glycan array binding signal (z-score),Fuc(a1-2)Gal6S(b1-4)Glc,0.681
same,glycan array binding signal (z-score),[17],-0.944
same,glycan array binding signal (z-score),Fuc(a1-2)[Gal(a1-3)]Gal,-0.737
same,glycan array binding signal (z-score),[18],0.122
same,glycan array binding signal (z-score),[19],-0.381
same,glycan array binding signal (z-score),[20],-0.03
same,glycan array binding signal (z-score),[21],-0.02
same,glycan array binding signal (z-score),[22],-0.12
same,glycan array binding signal (z-score),[23],-0.485
same,glycan array binding signal (z-score),[24],-0.35
same,glycan array binding signal (z-score),[25],0.602
same,glycan array binding signal (z-score),[26],-0.26
same,glycan array binding signal (z-score),[27],0.176
same,glycan array binding signal (z-score),[28],0.245

# No new results follow: an excerpt of the list.
binder,measurement,setting,value
B1,glycan array binding signal (z-score),[10],0.341
same,glycan array binding signal (z-score),[11],0.087
